Source: article PMC7018950
These are yes or no findings as the source states them, for the method shown. Binding seen in cells or lysates may run through a third protein. These calls come from enrichment with a bait or labelling near it, and not all partners need be listed.

B1: snapdragon chalcone synthase (AmCHS) of the petal extract (enzyme, UniProt P06515 1-390)
chain: MVTVEEVRRAQRAEGPATVLAIGTATPANCVDQSTYPDYYFRITNSEHMTELKEKFKRMCDKSNIKRRYMHLTEEILKENPAMCEYMAPSLDARQDIVVVEVPRLGKEAAQKAIKEWGQPKSKITHLVFCTTSGVDMPGADYQLTKLLGLRPSVKRFMMYQQGCFAGGTVLRMAKDLAENNAGARVLVVCSEITAVTFRGPADTHLDSLVGQALFGDGAAAVIVGSDPVVGVERPLFQIVTAAQTLLPDSHGAIDGHLREVGLTFHLLKDVPGLISKNIEKSLKEAFDPLGISDWNSVFWIAHPGGPAILDQVEEKLGLKPEKLRSTRQVLSEYGNMSSACVLFILDEMRKSSAKEGMSTTGEGLDWGVLFGFGPGLTVETVVLHSVPLN
B2: AmCHS of snapdragon petal extract (enzyme, UniProt P06515 1-390)
chain: B1 chain

Columns and labels:
[1] = target: His6-tagged snapdragon chalcone isomerase-like protein (His6-AmCHIL) (Antirrhinum majus); experiment: affinity purification with mass spectrometry; Method I: crude extract of orange snapdragon petals with Ni2+-coated magnetic beads and His6-tagged bait, room temperature 1 h; wash 0.01 M potassium phosphate pH 7.0, 0.15 M NaCl; elution glycine-HCl pH 2.8; LC-MS/MS; beads without bait as negative control; only the target purified
[2] = target: His6-tagged snapdragon CHIL (Antirrhinum majus (snapdragon)); experiment: affinity purification with mass spectrometry; Method I: His6 bait added to the crude extract of orange snapdragon petals with Ni2+-coated magnetic beads, room temperature 1 h; wash 0.01 M potassium phosphate pH 7.0, 0.15 M NaCl; elution 0.1 M glycine-HCl pH 2.8; LC-MS/MS; only the target purified

binding [1]	binding [2]	Binder
binds	–	B1
–	binds	B2
